Assay results from PubChem BioAssay AID330 (DTP/NCI, 2004).
The list shows only some results of the screen, not a fair sample: it is rich in T/C values a quarter to a half above the control, in often repeated tests (any T/C) and in doses without a T/C. Other doses and runs of a compound stand elsewhere. T/C is the treated group as % of the vehicle group. Some entries give survivors of the animals treated and no T/C: the source holds a T/C of zero for them, seemingly a mark for toxic or unscored doses. Some survivor counts are full or nearly so, which does not show that the dose was tolerated: survival well below the control is almost never listed, so the zero probably covers shortened survival too. Survivors were counted at the toxicity check, usually on the fifth day, unless a day is given; later deaths do not show. Schedule codes are those of the source, taken here to give the interval after Q, in days (D) or hours (H), and the number of doses after X. Some doses were run more than once; the values are given in rising order. Some structures stand for samples that the source files as different forms (salt, stereo form or complex); doses refer to the form tested. Where survival is the endpoint, this PubChem deposit counts one and a half times the control or more as active, and values a quarter to a half above the control carry no call in these data; other NCI protocols may use other cut-offs. Some T/C values carry the count of animals alive at the toxicity check (mostly the fifth day); without a count, all were alive then.

Tested on: P388 leukemia ip, CD2F1 mice, survival T/C
Assay: NCI In Vivo Anticancer Drug Screen. Data for tumor model P388 Leukemia (intraperitoneal) in CD2F1 (CDF1) mice
Details: T/C endpoint: median survival time, higher T/C = longer survival
[1] = dose: 100.0 mg/kg/injection, schedule: Q01DX009 (ip), vehicle: saline with Tween-80
[2] = dose: 200.0 mg/kg/injection, schedule: Q01DX005 (ip), vehicle: saline with Tween-80
[3] = dose: 200.0 mg/kg/injection, schedule: Q01DX009 (ip), vehicle: saline with Tween-80
[4] = dose: 240.0 mg/kg/injection, schedule: Q01DX005 (ip), vehicle: saline with Tween-80
[5] = dose: 200.0 mg/kg/injection, schedule: Q01DX009 (ip), vehicle: Klucel (hydroxypropylcellulose) (HPC)
[6] = dose: 6.25 mg/kg/injection, schedule: Q01DX005 (ip), vehicle: Klucel (hydroxypropylcellulose) (HPC)
[7] = dose: 50.0 mg/kg/injection, schedule: Q01DX005 (ip), vehicle: Klucel (hydroxypropylcellulose) (HPC)
[8] = dose: 100.0 mg/kg/injection, schedule: Q01DX005 (ip), vehicle: Klucel (hydroxypropylcellulose) (HPC)
[9] = dose: 200.0 mg/kg/injection, schedule: Q01DX005 (ip), vehicle: Klucel (hydroxypropylcellulose) (HPC)
[10] = dose: 400.0 mg/kg/injection, schedule: Q04DX003 (ip), vehicle: saline with Tween-80
[11] = dose: 200.0 mg/kg/injection, schedule: Q04DX003 (ip), vehicle: saline with Tween-80
[12] = dose: 400.0 mg/kg/injection, schedule: Q01DX009 (ip), vehicle: saline

SMILES: CCN(CC)Cc1cc2[nH]c3c4ccc(Cl)cc4ncc3c2cc1OC
- survivor count [1]: 5 of 6
- survivor count [2]: 4 of 6
- survivor count [3]: 0 of 6

SMILES: COc1ccc2n[se]nc2c1
- survivor count [4]: 0 of 6

SMILES: Cc1cc(N(CCOS(C)(=O)=O)CCOS(C)(=O)=O)ccc1C=Nc1ccc(-c2nc(Cc3ccccc3)sc2C)cc1
- T/C (dose: 12.5 mg/kg/injection, schedule: Q01DX009 (ip), vehicle: Klucel (hydroxypropylcellulose) (HPC)): 145 % of control
- T/C (dose: 50.0 mg/kg/injection, schedule: Q01DX009 (ip), vehicle: Klucel (hydroxypropylcellulose) (HPC)): 155, 174, 175, 190 % of control
- T/C (dose: 100.0 mg/kg/injection, schedule: Q01DX009 (ip), vehicle: Klucel (hydroxypropylcellulose) (HPC)): 106, 112, 125, 155 % of control
- T/C (dose: 100.0 mg/kg/injection, schedule: Q01DX009 (oral), vehicle: Klucel (hydroxypropylcellulose) (HPC)): 136 % of control
- T/C [5]: 97 and 133 % of control
- survivor count [5]: 10 of 10 and 6 of 6
- survivor count (dose: 400.0 mg/kg/injection, schedule: Q01DX009 (oral), vehicle: Klucel (hydroxypropylcellulose) (HPC)): 10 of 10

SMILES: C=C1C(=O)OC2C1CCC(=C)C1CC(O)C(=C)C12 (stereo not drawn)
- T/C (dose: 37.5 mg/kg/injection, schedule: Q01DX009 (ip), vehicle: suspension in saline): 133 % of control
- T/C (dose: 75.0 mg/kg/injection, schedule: Q01DX009 (ip), vehicle: suspension in saline, evaluated on day 20): 140 % of control [5 of 6 alive]
- T/C (dose: 75.0 mg/kg/injection, schedule: Q01DX009 (ip), vehicle: suspension in saline, evaluated on day 23): 133 % of control
- survivor count (dose: 150.0 mg/kg/injection, schedule: Q01DX009 (ip), vehicle: suspension in saline): 3 of 6 and 4 of 6

SMILES: C[CH2][Sn]1([CH2]C)[O]C(=O)[O][Sn]([CH2]C)([CH2]C)[O]1
- T/C (dose: 1.56 mg/kg/injection, schedule: Q01DX005 (ip), vehicle: Klucel (hydroxypropylcellulose) (HPC)): 126 % of control
- T/C (dose: 3.12 mg/kg/injection, schedule: Q01DX005 (ip), vehicle: Klucel (hydroxypropylcellulose) (HPC)): 140 % of control
- T/C [6]: 132 % of control
- T/C (dose: 12.5 mg/kg/injection, schedule: Q01DX005 (ip), vehicle: Klucel (hydroxypropylcellulose) (HPC), evaluated on day 20): 137 % of control
- T/C (dose: 12.5 mg/kg/injection, schedule: Q01DX005 (ip), vehicle: Klucel (hydroxypropylcellulose) (HPC), evaluated on day 30): 142 % of control [5 of 6 alive]
- survivor count [7]: 2 of 6
- survivor count [8]: 0 of 6
- survivor count [9]: 0 of 6

SMILES: Cc1cc2nc(CC(=O)c3cccnc3)c(CC(=O)c3cccnc3)nc2cc1C
- survivor count (dose: 50.0 mg/kg/injection, schedule: Q01DX005 (ip), vehicle: saline with Tween-80): 6 of 6
- survivor count [2]: 3 of 6

SMILES: O=[N+]([O-])c1ccc(Cl)cc1C(Nc1nncs1)Nc1nncs1
- T/C (dose: 240.0 mg/kg/injection, schedule: Q01DX005 (ip), vehicle: Klucel (hydroxypropylcellulose) (HPC)): 126 % of control

SMILES: CC1=CC(=O)C=CC1=Nc1ccc(N(C)C)cc1
- survivor count [1]: 3 of 6

SMILES: CCOC(=O)[C](=[N+]=[N-])[Hg][C](=[N+]=[N-])C(=O)OCC
- survivor count (dose: 12.5 mg/kg/injection, schedule: Q04DX003 (ip), vehicle: saline): 0 of 6
- survivor count (dose: 25.0 mg/kg/injection, schedule: Q04DX003 (ip), vehicle: saline): 0 of 6
- survivor count (dose: 50.0 mg/kg/injection, schedule: Q04DX003 (ip), vehicle: saline): 0 of 6

SMILES: NC(=O)C1C2CCC(O2)C1C(=O)O (stereo not drawn)
- survivor count [6]: 1 of 6
- survivor count (dose: 12.5 mg/kg/injection, schedule: Q01DX005 (ip), vehicle: Klucel (hydroxypropylcellulose) (HPC)): 0 of 6
- survivor count (dose: 25.0 mg/kg/injection, schedule: Q01DX005 (ip), vehicle: Klucel (hydroxypropylcellulose) (HPC)): 0 of 6
- survivor count [7]: 0 of 6
- survivor count [8]: 0 of 6
- survivor count [9]: 0 of 6

SMILES: NC(=O)/C=C/C(N)=O
- survivor count [10]: 3 of 6

SMILES: O=C(NCCCC1NC(=O)/C(=C(O)/C=C/C=C/c2ccccc2)C1=O)OCc1ccccc1 (stereo not drawn)
- survivor count (dose: 100.0 mg/kg/injection, schedule: Q01DX005 (ip), vehicle: saline with Tween-80): 6 of 6

SMILES: C=CC(=NC(C)(C)C)Nc1ccc(C(=O)OCC)cc1
- survivor count [3]: 0 of 6

SMILES: CCCCNC(=O)Nc1ccc(C(=O)OCCCC)cc1
- survivor count [10]: 6 of 6

SMILES: Nc1nc(SCc2ccccc2Cl)c2[nH]cnc2n1
- survivor count [11]: 5 of 6
- survivor count [10]: 5 of 6

SMILES: Cn1cnc2c1c(=O)n(C(C(N)=O)C(N)=O)c(=O)n2C
- survivor count (dose: 100.0 mg/kg/injection, schedule: Q01DX001 (ip), vehicle: saline with Tween-80): 6 of 6

SMILES: CCCCCCCCCCCCCCCc1cccc(O)c1C(=O)O
- survivor count (dose: 200.0 mg/kg/injection, schedule: Q01DX005 (ip), vehicle: distilled water + Tween-80): 0 of 6

SMILES: CCCCCCCCCCCCCCCC1=NCCN1
- survivor count [2]: 2 of 5

SMILES: CO[Si](CCCN)(OC)OC
- survivor count [12]: 0 of 6

SMILES: COc1cc(N(CCCl)CCCl)c(OC)cc1C=Nc1ccccc1C(=O)O
- survivor count (dose: 3.12 mg/kg/injection, schedule: Q01DX009 (ip), vehicle: saline): 4 of 6
- survivor count (dose: 6.25 mg/kg/injection, schedule: Q01DX009 (ip), vehicle: saline): 5 of 6
- T/C (dose: 6.25 mg/kg/injection, schedule: Q01DX009 (ip), vehicle: suspension in saline): 128 % of control
- T/C (dose: 12.5 mg/kg/injection, schedule: Q01DX009 (ip), vehicle: saline): 125 % of control
- T/C (dose: 12.5 mg/kg/injection, schedule: Q01DX009 (ip), vehicle: suspension in saline): 148 % of control
- survivor count (dose: 25.0 mg/kg/injection, schedule: Q01DX009 (ip), vehicle: suspension in saline): 6 of 6

SMILES: Nc1nc2c(ncn2C2OC(CO)C(O)C2O)c(=O)[nH]1 (stereo not drawn)
- T/C (dose: 50.0 mg/kg/injection, schedule: Q04DX003 (ip), vehicle: saline with Tween-80): 126 % of control
- T/C (dose: 100.0 mg/kg/injection, schedule: Q04DX003 (ip), vehicle: saline with Tween-80): 125 and 143 % of control
- survivor count [11]: 2 of 6

SMILES: O=S(=O)(O)O.[Cu+2].[NH-]CC1CCCC(C[NH-])C1.[NH-]CC1CCCC(C[NH-])C1 (stereo not drawn)
- survivor count (dose: 100.0 mg/kg/injection, schedule: Q04DX002 (ip), vehicle: Klucel (hydroxypropylcellulose) (HPC)): 0 of 6
- survivor count (dose: 200.0 mg/kg/injection, schedule: Q04DX002 (ip), vehicle: Klucel (hydroxypropylcellulose) (HPC)): 0 of 6
- survivor count (dose: 400.0 mg/kg/injection, schedule: Q04DX002 (ip), vehicle: Klucel (hydroxypropylcellulose) (HPC)): 0 of 6

SMILES: Cc1ccc(C)c2c(Nc3ccc4c(c3)OCO4)c(C(=O)O)cnc12
- survivor count (dose: 240.0 mg/kg/injection, schedule: Q01DX005 (ip), vehicle: Klucel + Tween-80): 6 of 6

SMILES: Cc1ccc(C)c(NC(=O)C#N)c1
- survivor count (dose: 120.0 mg/kg/injection, schedule: Q01DX005 (ip), vehicle: saline with Tween-80): 0 of 6
- survivor count [4]: 0 of 6

SMILES: C/C=C/N=NNc1ccccc1OC
- survivor count (dose: 200.0 mg/kg/injection, schedule: Q04DX003 (ip), vehicle: saline + Tween-80 + alcohol): 5 of 6
- survivor count (dose: 400.0 mg/kg/injection, schedule: Q04DX003 (ip), vehicle: saline + Tween-80 + alcohol): 0 of 6

SMILES: COC(=O)C1(F)C(=O)NC(=O)NC1O (stereo not drawn)
- survivor count (dose: 60.0 mg/kg/injection, schedule: Q01DX005 (ip), vehicle: saline): 0 of 6
- survivor count (dose: 120.0 mg/kg/injection, schedule: Q01DX005 (ip), vehicle: saline): 0 of 6
- survivor count (dose: 240.0 mg/kg/injection, schedule: Q01DX005 (ip), vehicle: saline): 0 of 6

SMILES: O=C(Oc1ccc[nH]c1=O)c1ccc([N+](=O)[O-])cc1
- T/C (dose: 100.0 mg/kg/injection, schedule: Q01DX009 (ip), vehicle: saline): 139 % of control
- T/C [12]: 132 % of control
